The campaign covered roughly 52,000 sequences. About 210 (0.4%) were called active.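 Rule for the calls: active = gene whose silencing raises cell survival under the drug, median off-target-corrected z-score across its silencing RNAs 2 or more; inactive = the rest.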 Some of the results follow.
Assay: Resistance to Poly (ADP-Ribose) Polymerase inhibitor: Gene Identification via Genome-wide siRNA Screen
Details: mouse BRCA2 R2336H ES cells, olaparib, CellTiter-Glo viability; stronger effect = higher value
Procedure, shortened: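 Mouse BRCA2 R2336H ES cells were reverse-transfected with siRNA (20 nM final), treated at 48 h with 500 nM olaparib, and read by CellTiter-Glo after 72 h. Scores: MAD-based z per siRNA, median per gene, seed off-target correction.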

| Sequence | z-score |
| --- | --- |
| CGACUUGUAUCGUAUGGCUTT against Grm7 | inactive: -0.92 |
| CCCAGGACUCAUGAUUACATT against Tas2r134 | inactive: -1 |
| GGUCAUCUAUCGUGUGCUGTT against Lamb2 | inactive: 1.09 |
| GCUUACAUUAAAGGAUAUGTT against Rab5c | inactive: 0.445 |
| CCUACACCCAAUUAAGAGUTT against F830005K03Rik | inactive: -0.0606 |
| GCACACCUUUAAUAGCUAATT against Gcm1 | inactive: -1.46 |
| GCUGGAUUAUUUGAGAGUCTT against 6330414G21Rik | inactive: -0.00472 |
| CCUAGCUGUUAGGAAGCAATT against 6030410K14 | inactive: -0.574 |
| GGAAUGUUUUCAUGACUGUTT against Ttc1 | inactive: -0.941 |
| GGCCGUAUAACAGGACUUUTT against Cltb | inactive: 0.652 |
| GGAAAAAAGGAAUUGACUUTT against 1200007O21Rik | inactive: 1.09 |
| CCCACCCAUCUAAUUUUUGTT against Gm266 | inactive: 0.666 |
| GCAUUCACCGUACGUAUUCTT against Idb4 | inactive: 0.66 |
| GGGCACAGGAUGAAAUGCATT against 4930511H11Rik | inactive: 0.355 |
| GCUGGUGCUGUGCAUCUUUTT against Aqp2 | inactive: -0.287 |
| GCAGAUUAGAAGCUAGUAUTT against Rab27b | inactive: 0.504 |
| CGCUUAGCAAUAUCAUCGATT against Asna1 | inactive: 0.831 |
| GGUCAUUGUUUAUGUCACATT against Sorcs3 | inactive: -1.4 |
| GGAGGUUUUCAUGGUUAUCTT against Nrgn | inactive: 1.3 |
| GGUUCAAUGCUCCCUUCGATT against Ghrl | inactive: -2.65 |
| GGGAAGACACUGGCUUCAGTT against Lepr | inactive: 0.477 |
| GGAAAUCAAUGCAUUGUCCTT against Fbn2 | inactive: -0.0373 |
| GCCAUAUUUACUAAGCAGATT against Plcl2 | inactive: 0.676 |
| GGCAGCUAGAAAUUCACUCTT against Sntb1 | inactive: -1.09 |
| GCGCAUCAUCGAUUCUGCCTT against Sfn | inactive: -0.292 |
| GGCUUUGGAAUAUACCGAGTT against 1600012K10Rik | inactive: -0.843 |

Individual results from the list:
CCUACACCCAAUUAAGAGUTT against F830005K03Rik | z-score: inactive: -0.0606
GCUGGAUUAUUUGAGAGUCTT against 6330414G21Rik | z-score: inactive: -0.00472
CGACUUGUAUCGUAUGGCUTT against Grm7 | z-score: inactive: -0.92
CCCACCCAUCUAAUUUUUGTT against Gm266 | z-score: inactive: 0.666

The list continues:

| Sequence | z-score |
| --- | --- |
| GGUGAACUCUUCACAUUUGTT against Fcer1a | inactive: 0.82 |
| GCAAAACUGAACAAAGUACTT against Cmya3 | inactive: -0.714 |
| GCAAAAUAACUGGGACUUGTT against Faf1 | inactive: 0.731 |
| GGAGAGCUGAAAGAUUUAATT against D630005C06Rik | inactive: 0.472 |
| GGAUCCUUACAAUAACAUUTT against Mut | inactive: 1.26 |
| GAAGUCGGUGGACAAGAACTT against Cebpa | inactive: 0.628 |
| CCAAAAAUGCAACCCUCACTT against Tde2l | inactive: 0.0333 |
| GCCCUAUUCCCAACUAUUCTT against Nefl | inactive: 0.169 |
| CCUCCACCUAGAAUGUGACTT against Ghrhr | inactive: -0.404 |
| GCCACUUCCUGGAUAAGGATT against Ftl2 | inactive: -1.24 |
| GGUUUCUUUUAAGCAUCAUTT against Olfr862 | inactive: -0.101 |
| GGGUGAAUCAUUCUGUGACTT against Olfr1313 | inactive: -0.574 |
| GGGCAUCUUCUACCUGACCTT against Zdhhc9 | inactive: 1.59 |
| GGUGAAAAACCCUAUAGUUTT against A230042K10Rik | inactive: 0.874 |
| GGGCCUGUAAUGGUGUACATT against B230317F23Rik | inactive: -0.882 |
| GGGUGAGUUGUUAAAUCCUTT against 9630025C22 | inactive: 1.35 |
| GUCAAAGAGUUUCAGCAUCTT against Foxl1 | inactive: 0.938 |
| GGCAGCAAGUUUUUUAAUCTT against Cap1 | inactive: 0.782 |
| GGCAAUUGAUAUGGUUCAGTT against Magea9 | inactive: -0.346 |
| GGAAAGCCACUGUGUAAAATT against 4930438O05Rik | inactive: 0.0884 |
| GGUUCAAUAAAAAUGCUUCTT against Ngp | inactive: 1.16 |
| GGAAAAUUGGCCAAAAUAATT against Pdcl | inactive: 0.579 |
| GCUAUAUCGCUAUGGACACTT against Cnot8 | inactive: -1.04 |
| GGUAUUACAAGGUCAUAUCTT against C78541 | inactive: -0.233 |
| GCAUCUUUGUGAAUGUUUATT against Slc7a3 | inactive: -0.938 |
| CCACAAUAGCUCGAACCAUTT against A730011L01Rik | inactive: -2.03 |

| Sequence | z-score |
| --- | --- |
| GGAGGCAAAAUCUUUUGUATT against 1700024D23Rik | inactive: -0.912 |
| CGCAAGAUCCUCAAACGAGTT against Proc | inactive: 2.34 |
| GGCUCAGAUACUCUUAUAATT against 4921525H12 | inactive: -1.88 |
| GCCAGUCUUAAAUGAUCAATT against Evi2b | inactive: -0.912 |
| GCAUUUUAUGCACUCUGUCTT against Camk4 | inactive: -0.295 |
| GGGCACUGGAACAGAUUUUTT against Ccnh | inactive: 1.35 |
| GGAAUGGAGUCUCCAAAGUTT against Mgl2 | inactive: 1.36 |
| GGUAGAGACGUGAAUGCUCTT against 4732495E13Rik | inactive: -0.143 |
| CCUCAUUCGAUACAUCUGUTT against C77668 | inactive: 1.28 |
| GCCGUGGCCUAAUAAACGUTT against Nosip | inactive: 0.351 |
| GGUCGAAUGAAAAUCGCCATT against Arhgap18 | inactive: 0.212 |
| GGAAACAGGGCUACGACAGTT against C130036J11 | inactive: 0.599 |
| GGGCCCAGGCUAAAAUAAATT against C230069K22Rik | inactive: -0.586 |
| GCCAGAUGCUUACUAAGUGTT against 2610033H07Rik | inactive: -0.831 |
| GGUGAUGACAAAGUACAAUTT against Stx3 | inactive: 0.398 |
| GCAAGAGUACAUCAAUGAUTT against Wdr75 | inactive: -2.3 |
| GCAAGGAUCCACGCUUUUCTT against Ckmt2 | inactive: -1.57 |
| GGUUAUUAAGACCCAGGUCTT against 1700055O19Rik | inactive: 0.435 |
| CCAUCAAAGAAACAGAUUGTT against 1110018M03Rik | inactive: -0.964 |
| CGAGGAUUUCUGUUACUUATT against Lyst | inactive: -0.313 |
| GGAACGUGAUGAAGUGGUCTT against Gm720 | inactive: 1.3 |
| GGUAGACUGGUCAGAUACATT against Gm111 | inactive: 1.05 |
| GGUUCAUCAUUUGGAAACATT against Msh4 | inactive: -1.61 |
| GGUGAUUUUAUGACAGGAATT against Cbx6 | inactive: 0.366 |
| CGUGUUUCACAAGAGCAUATT against Svs2 | inactive: 0.158 |
| GGGAGUUUCAGACCAGUGUTT against Atp5g3 | inactive: -1.46 |

| Sequence | z-score |
| --- | --- |
| GGUGAGAACGAGAUGGUGATT against Txnip | inactive: -1.08 |
| GGAAAAGGCCGAUUUCGUGTT against Dixdc1 | inactive: 0.0964 |
| GGAGCUUAAAGUGAGCGGCTT against 1110049G11Rik | inactive: -0.523 |
| GGAGGAUUCCAAAGUCCGATT against Sp5 | inactive: 1.37 |
| GGAAACGAGUUGGAGACAATT against Gtpbp1 | inactive: 0.416 |
| GCAGGAGAAAAGAAUCAAGTT against MGC118309 | inactive: 0.393 |
| GCCUGUCCACAUCACUGUATT against Gm905 | inactive: -0.457 |
| GGAAAACCUAAGGUUUAAUTT against 4933417C16Rik | inactive: -0.398 |
| GGUGUCGAGUAAGAAAGCUTT against BC046331 | inactive: -0.0444 |
| GGGAGUGCCUUUAAAACACTT against Satb1 | inactive: -1.22 |
| GGAACUCACUCGACAGAAGTT against 5730536A07Rik | inactive: -1.4 |
| GGUGUUAGCUACAGAGACCTT against Rab32 | inactive: 0.326 |
| GCAAGCACUGAACUUUGUCTT against 2900009I07Rik | inactive: 0.795 |
| GGACAUAGAUAAAUGCAGATT against D13Wsu50e | inactive: 1.08 |
| GGGAACAGUAUCUGAUUCATT against Polg | inactive: 0.25 |
| GGGAUUCAGAGUCAAGAUUTT against Thpo | inactive: 0.898 |
| CCCUACAGUACUAAUCAAATT against Ptgs2 | inactive: -1.05 |
| GGCUUUCAGAGUUAACAAATT against Ptpn4 | inactive: -0.914 |
| GCUCAGGAUCGCUAUUACATT against Il12b | inactive: -1.37 |
| GGAGAUUUCAUGAACUCUGTT against AB041661 | inactive: 0.14 |
| GCAGGACUUACAUGAGAAUTT against 1200015N20Rik | inactive: 0.329 |
| GGUCUUGGAGUUGCUAAUUTT against Vdrip | inactive: -0.168 |
| GCCUUUUUGGAGAAUGAAUTT against Rhbdl | inactive: -0.143 |
| GGAGUGUUUGAGAAAUACCTT against BC027342 | inactive: -0.283 |
| GGAUGCUGUUUACCUAUACTT against D630035O19Rik | inactive: 0.419 |
| CCUCAGAAAAAGAGUGUGCTT against 4930563M21Rik | inactive: -0.534 |

Another view of part of the listing above.
Sequence	z-score
GCCUUUUUGGAGAAUGAAUTT against Rhbdl	inactive: -0.143
GGAGUGUUUGAGAAAUACCTT against BC027342	inactive: -0.283
GGAUGCUGUUUACCUAUACTT against D630035O19Rik	inactive: 0.419

— PubChem BioAssay AID1347423 (Functional Genomics Laboratory (NCATS/FGL), 2020)
